Measured values: US20130209481A1 (University of California, published 2013)
These are yes or no findings as the source states them, for the method shown. Some results given as binding are weak or reduced against the parent protein; the word gives no strength.

Protein sequences, listed by entry. Tags and fused reporters are not part of them. Lines headed by an entry give the natural chain unless they say otherwise; changes in a name come on top. Chains listed by the source or under a name are the forms on record and can include a tag or linker. Residues count along the entry.
CD44 of MDAMB231 cells (native CD44) (P16070, residues 21-742): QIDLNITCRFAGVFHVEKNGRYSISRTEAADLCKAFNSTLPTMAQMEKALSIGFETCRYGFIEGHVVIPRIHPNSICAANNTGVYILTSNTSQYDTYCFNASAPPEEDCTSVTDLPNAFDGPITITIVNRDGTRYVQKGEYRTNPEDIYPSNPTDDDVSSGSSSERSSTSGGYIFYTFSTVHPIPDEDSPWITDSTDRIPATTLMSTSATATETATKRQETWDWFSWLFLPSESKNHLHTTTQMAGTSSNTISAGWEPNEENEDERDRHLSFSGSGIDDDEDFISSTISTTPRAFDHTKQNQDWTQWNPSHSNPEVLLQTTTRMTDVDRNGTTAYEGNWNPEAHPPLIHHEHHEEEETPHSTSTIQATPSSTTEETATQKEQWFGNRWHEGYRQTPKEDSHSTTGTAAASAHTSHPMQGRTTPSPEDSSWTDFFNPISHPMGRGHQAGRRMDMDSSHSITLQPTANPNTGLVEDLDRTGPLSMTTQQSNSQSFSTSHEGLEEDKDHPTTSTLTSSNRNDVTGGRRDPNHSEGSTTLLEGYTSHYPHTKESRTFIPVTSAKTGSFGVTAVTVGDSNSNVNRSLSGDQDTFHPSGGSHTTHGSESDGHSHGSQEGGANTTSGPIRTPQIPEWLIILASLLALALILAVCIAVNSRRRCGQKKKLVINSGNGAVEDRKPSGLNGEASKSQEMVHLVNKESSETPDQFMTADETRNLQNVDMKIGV
CD44s (standard form) (P16070, form named): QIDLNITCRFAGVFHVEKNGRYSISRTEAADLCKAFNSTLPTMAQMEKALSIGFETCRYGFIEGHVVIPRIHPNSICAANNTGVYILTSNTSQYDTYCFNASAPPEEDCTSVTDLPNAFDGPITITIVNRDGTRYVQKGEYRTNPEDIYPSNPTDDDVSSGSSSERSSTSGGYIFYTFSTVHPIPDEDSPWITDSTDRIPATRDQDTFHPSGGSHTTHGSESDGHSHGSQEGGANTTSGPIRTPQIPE

Assays:
[1] = molecular target: CD44 of MDAMB231 cells (native CD44) (human) (UniProt P16070); test: flow cytometry of phage antibody on MDAMB231 cells
[2] = molecular target: CD44 of MDAMB231 cells (native CD44) (human) (UniProt P16070); test: immunoprecipitation with soluble scFv, Western blot
[3] = molecular target: CD44 of MDAMB231 cells (native CD44) (human) (UniProt P16070); test: immunoprecipitation with soluble His-tagged scFv from MDAMB231 cell extract, Western blot with anti-CD44 Ab-4
CD44s (standard form) [4] = molecular target: CD44s (standard form) (UniProt P16070); test: fd phage antibody selected on yeast displayed antigen; screened by flow cytometry as in Examples 4 and 5
CD44s (standard form) [5] = molecular target: CD44s (standard form) (UniProt P16070); test: phagemid antibody selected on yeast displayed antigen; screened by flow cytometry as in Examples 4 and 5

B1: anti-CD44 human scFv F2-1A6 (scFv, V domains shown)
VH: QVQLVQSGAEVKKPGESLKISCKGSGYSFTSYWIGWVRQMPGKGLEWMGIIYPGDSDTRYSPSFQGQVTISADKSISTAYLQWSSLKASDTAMYYCARRLHGPFYFDYWGQGTLVTVSS
VL: SELTQDPAVSVALGQTVRITCQGDSLRSYYASWYQQKPGQAPLLVIYGKNIRPSGIPDRFSGSSSGNTASLTITGAQAEDEADYYCNSRDSSGNHVVFGGGTKLTVLG
notes: soluble scFv with C-terminal (His)6 tag in the immunoprecipitation; also called anti-CD44 phage F2-1A6
With B1 the binding [1] was “binds”, the binding [2] was “binds” and the binding [3] was “binds”.

B2: D6G9 (scFv)
scFv: QVQLVESGGGLVQPGGSLRLSCAASGFTFSSYAMGWVRQAPGKGLEWVSAISASGGSTYYADSVKGRFTISRDNSKNTLYLQLNSLRAEDTAVYYCAKGLKDSSGFDYWGQGTLVTVSSGGGGSGGGGSGGGGSNFMLTQDPAVSVALGQTVRITCQGDSLRSYYASWYQQKPGQAPVLVIYGKNNRPSGIPDRFSGSSSGNTASLTITGAQAEDEADYYCNSRDSSAKRVVFGGGTKVTVLG
B2 was tested, and the binding (CD44s (standard form) [4]) was “binds”.

B3: D6D3 (scFv)
scFv: QVQLQESGGGLVQPGGSLRLSCAASGFTFSSYAMSWVRQAPGKGLEWVSAITSSGGRTYYADSVRGRLTISRDNSKNTLYLQMNTLRAEDTAVYYCAKGIVGATAFDYWGQGTLVTVSSGGGGSGGGGSGGGGSSELTQDPAVSVALGQTVRITCQGDSLRSYYASWYQQKPGQAPVLVIYGKNNRPSGIPDRFSGSSSGNTASLTITGAQAEDEADYYCNSRDSSGNSVVFGGGTKVTVLG
For B3, the binding (CD44s (standard form) [4]) was “binds”.

B4: H1C4 (scFv)
scFv: QVQLVESGGGLVQPGGSLRLSCAASGFTFSTLAMGWVRQAPGKGLEWVSAISGSGGSTYYADSVKGRFTISRDNSKNTLYLQMNSLRAEDTAVYYCARGAVGATTAFDYWGQGTLVTVSSGGGGSGGGGSGGGGSSELTQDPAVSVALGQTVKITCQGDSLRSYYASWYQQKPGQAPVLVIYGKNNRPSGIPDRFSGSSSGNTASLTITGAQAEDEADYYCNSRDSSGNHLVFGGGTKLTVLG
In the case of B4, the binding (CD44s (standard form) [5]) is reported as “binds”.
